Structures were worked out from names or drawings and are uncertain.
Columns and labels:
integrin α4β7 = integrin α4β7 (Homo sapiens, UniProt P13612+P26010); test: Assessment of VCAM-1/α4β7 binding antagonistic activity (RPMI-8866 cells binding to VCAM-1); details: read-out: integrin VCAM/α4 binding antagonistic activity (IC50) α4β7; RPMI-8866 human B lymphoma cells binding to recombinant human VCAM-1, binding buffer with 4 mM MnCl2
integrin α4β1 = integrin α4β1 (Homo sapiens, UniProt P05556+P13612); test: Assessment of VCAM-1/α4β1 binding antagonist activity (Jurkat cells binding to VCAM-1); details: read-out: integrin VCAM/α4 binding antagonistic activity (IC50) α4β1; Jurkat human T cells binding to recombinant human VCAM-1

Amino acid sequences for entries named in this document (tags omitted). Residues count along the entry.
UniProt P13612, 34-1032 limits assumed: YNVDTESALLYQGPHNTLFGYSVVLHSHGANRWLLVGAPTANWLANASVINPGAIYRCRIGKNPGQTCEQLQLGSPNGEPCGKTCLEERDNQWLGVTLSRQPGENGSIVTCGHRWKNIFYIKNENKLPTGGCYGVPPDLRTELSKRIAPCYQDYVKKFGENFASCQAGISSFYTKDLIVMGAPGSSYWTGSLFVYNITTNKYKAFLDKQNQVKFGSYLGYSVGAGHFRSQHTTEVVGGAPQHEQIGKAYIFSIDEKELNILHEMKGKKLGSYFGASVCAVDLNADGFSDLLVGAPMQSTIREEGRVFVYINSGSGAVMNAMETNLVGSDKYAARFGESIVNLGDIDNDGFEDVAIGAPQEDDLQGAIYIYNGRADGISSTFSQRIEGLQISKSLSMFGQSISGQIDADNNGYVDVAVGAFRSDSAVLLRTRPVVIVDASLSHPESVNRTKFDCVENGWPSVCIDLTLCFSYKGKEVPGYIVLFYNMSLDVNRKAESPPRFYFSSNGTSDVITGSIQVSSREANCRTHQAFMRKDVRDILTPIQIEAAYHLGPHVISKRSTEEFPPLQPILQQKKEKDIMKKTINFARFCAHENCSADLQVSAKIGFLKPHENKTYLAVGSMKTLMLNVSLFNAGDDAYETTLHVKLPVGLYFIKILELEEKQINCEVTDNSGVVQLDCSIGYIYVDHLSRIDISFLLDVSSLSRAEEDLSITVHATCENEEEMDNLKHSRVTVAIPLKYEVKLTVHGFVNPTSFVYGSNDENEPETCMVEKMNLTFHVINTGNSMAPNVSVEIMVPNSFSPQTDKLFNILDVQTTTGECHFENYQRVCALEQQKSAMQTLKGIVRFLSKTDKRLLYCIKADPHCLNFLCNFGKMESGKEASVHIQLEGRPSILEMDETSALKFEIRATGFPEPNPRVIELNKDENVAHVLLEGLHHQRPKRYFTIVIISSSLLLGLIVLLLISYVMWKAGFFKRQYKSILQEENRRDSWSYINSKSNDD
UniProt P26010, 20-798 limits assumed: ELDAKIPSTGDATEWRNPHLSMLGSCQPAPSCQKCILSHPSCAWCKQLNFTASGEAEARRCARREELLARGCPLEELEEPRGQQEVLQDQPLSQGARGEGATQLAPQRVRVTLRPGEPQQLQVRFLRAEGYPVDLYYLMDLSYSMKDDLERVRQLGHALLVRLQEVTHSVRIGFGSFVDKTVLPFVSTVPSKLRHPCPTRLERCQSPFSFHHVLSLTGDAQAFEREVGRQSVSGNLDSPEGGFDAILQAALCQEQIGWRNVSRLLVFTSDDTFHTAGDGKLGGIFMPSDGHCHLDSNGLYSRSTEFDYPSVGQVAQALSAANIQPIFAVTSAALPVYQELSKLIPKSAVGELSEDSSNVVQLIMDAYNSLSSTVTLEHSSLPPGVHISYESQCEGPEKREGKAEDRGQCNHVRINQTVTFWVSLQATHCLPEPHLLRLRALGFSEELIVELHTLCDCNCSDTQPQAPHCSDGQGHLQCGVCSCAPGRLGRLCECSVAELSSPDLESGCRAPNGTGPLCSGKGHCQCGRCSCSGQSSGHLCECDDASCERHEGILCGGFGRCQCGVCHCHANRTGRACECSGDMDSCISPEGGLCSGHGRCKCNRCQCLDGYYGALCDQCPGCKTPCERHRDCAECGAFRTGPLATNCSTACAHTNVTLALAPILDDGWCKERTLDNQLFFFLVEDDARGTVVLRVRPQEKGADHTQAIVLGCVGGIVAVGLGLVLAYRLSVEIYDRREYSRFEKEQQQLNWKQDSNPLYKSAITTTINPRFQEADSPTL
UniProt P05556, 21-798 limits assumed: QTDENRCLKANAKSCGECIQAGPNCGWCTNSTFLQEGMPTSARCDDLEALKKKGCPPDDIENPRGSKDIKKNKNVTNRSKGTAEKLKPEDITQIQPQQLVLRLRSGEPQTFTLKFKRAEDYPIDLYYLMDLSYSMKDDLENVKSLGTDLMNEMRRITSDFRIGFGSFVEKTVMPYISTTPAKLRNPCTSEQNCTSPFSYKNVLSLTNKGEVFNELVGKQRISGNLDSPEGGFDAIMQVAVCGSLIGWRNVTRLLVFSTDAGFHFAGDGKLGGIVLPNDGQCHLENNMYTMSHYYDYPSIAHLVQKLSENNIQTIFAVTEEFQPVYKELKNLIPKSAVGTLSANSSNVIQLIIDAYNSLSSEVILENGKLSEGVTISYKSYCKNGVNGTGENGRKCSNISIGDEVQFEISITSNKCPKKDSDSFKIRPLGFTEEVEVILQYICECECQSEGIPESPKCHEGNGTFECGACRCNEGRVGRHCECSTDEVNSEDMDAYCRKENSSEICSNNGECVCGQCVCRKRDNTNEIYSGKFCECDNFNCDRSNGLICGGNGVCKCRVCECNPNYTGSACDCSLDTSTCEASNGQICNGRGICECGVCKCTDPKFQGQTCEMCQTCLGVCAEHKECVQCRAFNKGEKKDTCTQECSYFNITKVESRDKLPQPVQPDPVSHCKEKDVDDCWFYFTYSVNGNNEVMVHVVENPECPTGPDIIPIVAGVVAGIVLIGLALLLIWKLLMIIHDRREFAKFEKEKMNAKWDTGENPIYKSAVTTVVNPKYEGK

- IC50 (integrin α4β7): 0.0023 µM
- IC50 (integrin α4β1): 0.06 µM
Structure (SMILES): Cn1c(=O)n(-c2ccc(C[C@H](NC(=O)c3c(Cl)cccc3Cl)C(=O)O)cc2)c(=O)c2nccnc21

Reference: US7605165B2, “Phenylalanine derivatives” (Ajinomoto Co., Inc., priority 2002, dated 2009)
